PubChem BioAssay AID652243, Drosophila RNAi Screening Center, 2013
Assay: 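Fly genes required for human androgen receptor driven transcription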 (primary screen). Cell system: Drosophila S2R+ cells. Knock-down reagent: long dsRNA against Drosophila genes. Duration: 72 h (48 h, then 24 h hormone). Treatment: synthetic androgen R1881 at 10 nM for 24 h. Measurement: 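Firefly light from an androgen-responsive reporter and Renilla control light per well, raw and unnormalised, for each of two replicates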. Scale: firefly reporter light: higher = more light from androgen-responsive reporter; Renilla control light: higher = more constitutive control signal (cell number, transfection). Call rule: 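Across duplicate plates, a knock-down whose log firefly/Renilla ratio shifted a set fold down or up from the GFP/LacZ control mean was a hit; the downward cut appears as both 1.5 and 3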. Meaning of the calls: active = hit: reporter lowered or raised; inactive = no hit.
The deposit covers about 24,000 reagents; below is a random part of those that have a named target and a result. Of all reagents, 246 (1%) got an active call. 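Plates not normalised; calls are printed but the firefly/Renilla ratio behind them is not deposited; fold cut for lowering reported inconsistently.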 Raw values are not corrected between plates. Reagent sequences are not shown. Not stated in the record: the amount of reagent.

| firefly reporter light, replicate 1 | firefly reporter light, replicate 2 | Renilla control light, replicate 1 | Renilla control light, replicate 2 | outcome | gene | dsRNA |
| --- | --- | --- | --- | --- | --- | --- |
| 3.63e5 | 2.21e5 | 2.61e6 | 2.25e6 | inactive | CG13250 | DRSC11698 |
| 2.69e5 | 2.84e5 | 4.13e5 | 7.66e5 | inactive | CG13250 | DRSC27753 |
| 2.69e5 | 1.10e5 | 7.01e5 | 2.82e5 | inactive | Alr | DRSC19469 |
| 5.78e5 | 4.35e5 | 2.26e6 | 2.35e6 | inactive | baz | DRSC20309 |
| 7.84e5 | 5.98e5 | 9.50e5 | 8.69e5 | inactive | baz | DRSC25558 |
| 9.97e5 | 1.06e6 | 1.49e6 | 1.69e6 | inactive | RluA-2 | DRSC02939 |
| 5.38e5 | 3.39e5 | 1.84e6 | 7.00e5 | inactive | wgn | DRSC19998 |
| 60666 | 62616 | 6.48e5 | 3.66e5 | inactive | dpr14 | DRSC17767 |
| 1.26e5 | 1.35e5 | 1.96e5 | 1.99e5 | inactive | dpr14 | DRSC26488 |
| 1.50e5 | 2.24e5 | 1.63e6 | 1.57e6 | inactive | spir | DRSC03619 |
| 2.44e5 | 2.52e5 | 6.45e5 | 4.78e5 | inactive | spir | DRSC24744 |
| 1.93e5 | 1.56e5 | 2.36e6 | 1.82e6 | inactive | CG14424 | DRSC18472 |
| 9.75e5 | 1.01e6 | 1.38e6 | 1.33e6 | inactive | CG14424 | DRSC29124 |
| 2.20e5 | 1.79e5 | 3.02e6 | 2.32e6 | inactive | Ptp10D | DRSC20272 |
| – | – | – | – | inactive | Ptp10D | DRSC36634 |
| – | – | – | – | inactive | Ptp10D | DRSC36635 |
| 6.50e5 | 8.34e5 | 1.33e6 | 2.17e6 | inactive | Ptp10D | DRSC39114 |
| 3.53e5 | 2.13e5 | 1.59e6 | 1.40e6 | inactive | CG13148 | DRSC06275 |
| 77307 | 80899 | 9.19e5 | 8.14e5 | inactive | Cpr56F | DRSC07326 |
| 1.18e6 | 1.01e6 | 9.98e5 | 1.22e6 | inactive | Cpr56F | DRSC24002 |
| 1.11e6 | 1.05e6 | 1.09e6 | 1.42e6 | inactive | l(3)psg2 | DRSC10484 |
| 7.40e5 | 8.78e5 | 8.90e5 | 9.10e5 | inactive | l(3)psg2 | DRSC24075 |
| 51756 | 44265 | 4.14e5 | 3.81e5 | inactive | P5CDh1 | DRSC11801 |

8 successive entries already listed, for reference:
| firefly reporter light, replicate 1 | firefly reporter light, replicate 2 | Renilla control light, replicate 1 | Renilla control light, replicate 2 | outcome | gene | dsRNA |
| --- | --- | --- | --- | --- | --- | --- |
| 1.26e5 | 1.35e5 | 1.96e5 | 1.99e5 | inactive | dpr14 | DRSC26488 |
| 1.50e5 | 2.24e5 | 1.63e6 | 1.57e6 | inactive | spir | DRSC03619 |
| 2.44e5 | 2.52e5 | 6.45e5 | 4.78e5 | inactive | spir | DRSC24744 |
| 1.93e5 | 1.56e5 | 2.36e6 | 1.82e6 | inactive | CG14424 | DRSC18472 |
| 9.75e5 | 1.01e6 | 1.38e6 | 1.33e6 | inactive | CG14424 | DRSC29124 |
| 2.20e5 | 1.79e5 | 3.02e6 | 2.32e6 | inactive | Ptp10D | DRSC20272 |
| – | – | – | – | inactive | Ptp10D | DRSC36634 |
| – | – | – | – | inactive | Ptp10D | DRSC36635 |

The results go on.
| firefly reporter light, replicate 1 | firefly reporter light, replicate 2 | Renilla control light, replicate 1 | Renilla control light, replicate 2 | outcome | gene | dsRNA |
| --- | --- | --- | --- | --- | --- | --- |
| 82463 | 53058 | 6.55e5 | 5.76e5 | inactive | GABA-B-R3 | DRSC00561 |
| 5.09e5 | 6.22e5 | 1.01e6 | 1.01e6 | inactive | GABA-B-R3 | DRSC29404 |
| 45628 | 62248 | 4.81e5 | 4.03e5 | inactive | Vps4 | DRSC19338 |
| 5.26e5 | 6.54e5 | 9.22e5 | 1.15e6 | inactive | Vps4 | DRSC25068 |
| 3.67e5 | 2.27e5 | 2.34e6 | 1.83e6 | inactive | CG8642 | DRSC07228 |
| 1.67e5 | 1.76e5 | 1.98e6 | 2.25e6 | inactive | CG4757 | DRSC14130 |
| 9.90e5 | 1.00e6 | 2.67e6 | 2.84e6 | inactive | CG34236 | DRSC38647 |
| 4.15e5 | 3.84e5 | 3.02e6 | 2.85e6 | inactive | Gpdh2 | DRSC04346 |
| 1.86e5 | 2.07e5 | 2.78e6 | 3.07e6 | inactive | CG14258 | DRSC14753 |
| 66720 | 52496 | 7.80e5 | 7.80e5 | inactive | CG43428 | DRSC06205 |
| 4.57e5 | 5.24e5 | 7.90e5 | 6.88e5 | inactive | CG43428 | DRSC25601 |
| 1.37e5 | 90352 | 7.80e5 | 4.65e5 | inactive | jdp | DRSC16975 |
| 6.05e5 | 7.62e5 | 1.58e6 | 1.58e6 | inactive | jdp | DRSC29394 |
| 8.62e5 | 6.75e5 | 3.21e6 | 2.67e6 | inactive | RNASEK | DRSC21641 |
| 72856 | 1.18e5 | 2.69e5 | 3.43e5 | inactive | Tango11 | DRSC03890 |
| 1.62e5 | 1.42e5 | 4.03e5 | 2.26e5 | inactive | Tango11 | DRSC03892 |
| 2.24e5 | 1.74e5 | 1.46e6 | 8.86e5 | inactive | polyph | DRSC06254 |
| 1.09e6 | 2.07e6 | 1.54e6 | 2.00e6 | inactive | Paris | DRSC00451 |
| 6.78e5 | 5.59e5 | 6.68e5 | 6.68e5 | inactive | Paris | DRSC29550 |
| 2.08e5 | 1.79e5 | 2.57e6 | 2.83e6 | inactive | gammaSnap2 | DRSC15992 |
| 61992 | 1.18e5 | 1.86e6 | 2.69e6 | inactive | kmr | DRSC14827 |
| 1.05e5 | 1.06e5 | 1.66e6 | 2.26e6 | inactive | kmr | DRSC14828 |
| 73934 | 27266 | 2.26e5 | 2.05e5 | inactive | kmr | DRSC16472 |
| 4.24e5 | 4.56e5 | 9.51e5 | 8.78e5 | inactive | kmr | DRSC25867 |
| 4.79e5 | 7.53e5 | 9.61e5 | 1.09e6 | inactive | kmr | DRSC28945 |
| 1.36e5 | 1.82e5 | 1.44e6 | 2.09e6 | inactive | t-Grip84 | DRSC10904 |
| 1.04e6 | 5.36e5 | 2.33e6 | 1.20e6 | inactive | Swim | DRSC04334 |
| 1.62e5 | 92372 | 8.43e5 | 8.18e5 | inactive | dob | DRSC19948 |
| 9.17e5 | 9.50e5 | 2.27e6 | 2.10e6 | inactive | CG34242 | DRSC38727 |
| 1.99e5 | 2.18e5 | 2.67e6 | 2.48e6 | inactive | DNAlig3 | DRSC15201 |
| 5.69e5 | 8.08e5 | 1.01e6 | 1.01e6 | inactive | DNAlig3 | DRSC29603 |
| 99629 | 1.15e5 | 2.45e6 | 2.45e6 | inactive | Dlish | DRSC06016 |
| – | – | – | – | inactive | Dlish | DRSC36868 |
| 1.69e5 | 1.06e5 | 2.34e6 | 2.36e6 | inactive | CG42534 | DRSC16072 |
| 8.49e5 | 1.01e6 | 4.78e5 | 4.39e5 | inactive | CG42534 | DRSC23131 |
| 3.25e5 | 3.52e5 | 7.78e5 | 6.19e5 | inactive | CG42534 | DRSC26096 |
